Results taken from PubChem BioAssay AID1487 (National Center for Advancing Translational Sciences (NCATS), 2009).
The other results are listed elsewhere or left out. Further columns of the screen follow, without active or inactive calls. Most of these compounds were active or inconclusive in the main read-out, so they are no random draw. Potencies come from curve fits of mixed quality, noted in brackets.

Experiment: qHTS Assay for Modulators of Lamin A Splicing
Conditions: HeLa LMNA splicing GFP/RFP minigene ratio, 48 h
How it was run: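 S3 HeLa stable clones carrying a lamin A-EGFP splicing minigene plus DsRed2 were seeded at 600 cells/well in Opti-MEM with 2% FBS, pin-dosed and incubated 48 h at 37°C. Acumen cytometry (488 nm) gave the GFP/RFP total-intensity ratio.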

[1] = measured here: RFP viability control channel
[2] = measured here: GFP splicing reporter channel

| Structure (SMILES) | AC50 [1] | AC50 [2] |
| --- | --- | --- |
| Cn1c(=O)oc2cc(S(=O)(=O)N3CCCC(C(=O)Nc4nccs4)C3)ccc21 (stereo not given) | 14.1 µM [rising, single point] | – |
| CCOC(=O)N1CCN(CC(=O)Nc2c(C(=O)OC)[nH]c3ccccc23)CC1 | 31.6 µM [rising, single point] | 17.8 µM [rising, single point] |
| COc1ccc(-c2ccc(C(c3c(C)[nH][nH]c3=O)c3c(C)[nH][nH]c3=O)o2)c([N+](=O)[O-])c1 | 14.1 µM [rising, partial curve, poor fit] | – |
| CC(C)OC(=O)c1c(NC(=O)c2cc3nc(-c4ccccc4)cc(C(F)(F)F)n3n2)sc2c1CCCC2 | – | 0.00447 µM [rising, full curve, poor fit] |
| CCc1ccc(-n2c(=O)c3c(C)c(C(=O)N(C)C)sc3n(CC(=O)NCc3ccco3)c2=O)cc1 | 22.4 µM [falling, single point] | 22.4 µM [falling, single point] |
| Cc1cccc(N=C(NO)c2nonc2N)c1 | 35.5 µM [rising, single point] | 31.6 µM [rising, single point] |
| CC(=O)c1ccc(NC(=O)CN2C(=O)CCc3cc(S(=O)(=O)N4CCC(C)CC4)ccc32)cc1 | 5.62 µM [rising, single point] | – |
| CN(c1ccccc1)S(=O)(=O)c1cc(C(=O)N2CCN(c3ccccn3)CC2)ccc1Cl | 25.1 µM [rising, partial curve] | 17.8 µM [rising, partial curve, poor fit] |
| Cc1nn(-c2ccccc2)c(C)c1NC(=O)COc1ccc2ccccc2c1 | 8.91 µM [rising, partial curve] | – |
| Cc1cc(C)cc(NS(=O)(=O)c2ccc3[nH]cc(C(=O)NCc4ccco4)c(=O)c3c2)c1 | 2.24 µM [rising, full curve, poor fit] | – |
| CCC(C)n1c(SCc2ccc([N+](=O)[O-])cc2)nc2ccsc2c1=O (stereo not given) | 35.5 µM [rising, single point] | 17.8 µM [rising, single point] |
| Cc1ccc(-c2cc(C(=O)Nc3cc(C)on3)c3ccccc3n2)c(C)c1 | 31.6 µM [rising, single point] | – |
| Cn1c(=O)c(C(=O)COC(=O)c2cc(C3CC3)nc3ccccc23)c(N)n(Cc2ccccc2)c1=O | 22.4 µM [rising, single point] | 14.1 µM [rising, single point] |
| O=[N+]([O-])c1nn(-c2ccc3c(c2)OCCO3)n(O)c1=NCCCO | 0.178 µM [falling, full curve, poor fit] | – |
| CC(=O)c1ccc(-n2c(SCC(=O)c3c[nH]c4ccccc34)nc3ccccc3c2=O)cc1 | 1.41 µM [rising, partial curve] | – |
| O=c1ccc2ccc(Oc3ccc([N+](=O)[O-])cc3[N+](=O)[O-])cc2o1 | 35.5 µM [rising, single point] | 15.8 µM [rising, single point] |
| C/C(=N/NC(=O)CNC(=O)Cc1ccc(Cl)cc1)c1ccco1 | 0.0794 µM [falling, full curve, poor fit] | – |

| Structure (SMILES) | AC50 [1] | AC50 [2] |
| --- | --- | --- |
| CCOC(=O)C1CCN(C(c2cccnc2)c2c(NC(=O)c3ccco3)sc(C)c2C)CC1 (stereo not given) | 11.2 µM [rising, partial curve] | 35.5 µM [rising, single point] |
| CC(C)(C)c1nn(-c2ccccc2)c2[nH]c(=O)c(CNc3ccc4c(c3)OCCO4)cc12 | 11.2 µM [rising, partial curve] | 11.2 µM [rising, partial curve] |
| CCc1ccc2c(c1)C1(C(=O)N2)N2CCCC2C(C(=O)c2ccc3ccccc3c2)C12C(=O)Nc1ccccc12 (stereo not given) | 35.5 µM [falling, single point] | 35.5 µM [falling, single point] |
| S=c1nc(-c2ccccc2Cl)n(Cc2cccnc2)c2c1CCCC2 | – | 0.00355 µM [falling, full curve, poor fit] |
| COc1ccc(Br)cc1CNC(=O)c1ccc(-n2c(C)cc3c2CCC(C)C3)cc1 (stereo not given) | 0.0224 µM [falling, full curve, poor fit] | – |
| Cc1cc(=O)n(C)c(=O)n1CCCCCCOc1cccc([N+](=O)[O-])c1 | 14.1 µM [rising, partial curve] | – |
| Cc1nn(C)c2c1c(C(F)(F)F)cc(=O)n2CC(=O)NC(C)(C)C | 0.0141 µM [falling, full curve, poor fit] | 0.0562 µM [falling, full curve, poor fit] |
| Cc1ccc(C(=O)Nc2ccc(N3CCN(S(C)(=O)=O)CC3)cc2)cc1C | 2.51 µM [falling, partial curve, poor fit] | – |
| COc1ccc(-c2cc(-c3cccs3)c(C#N)c(SCC(=O)NCc3ccco3)n2)cc1 | – | 5.62 µM [rising, full curve] |
| COC(=O)c1[nH]c2cccc(OC)c2c1NC(=O)CCN1CCN(c2cccc(Cl)c2)CC1 | 35.5 µM [rising, partial curve] | – |
| Cc1ccc(S(=O)(=O)NNC(=O)c2ccccc2O)cc1 | 10 µM [rising, partial curve, poor fit] | – |
| O=[N+]([O-])c1cccc(C(=Nc2cccc(Cl)c2)NO)c1 | 14.1 µM [rising, single point] | – |
| C[C@H](NCCC(c1ccccc1)c1ccccc1)c1ccccc1 | 3.16 µM [falling, full curve] | 3.16 µM [falling, partial curve] |
| Clc1cc(Sc2ccc(Br)cc2)nnc1-c1ccccc1 | 35.5 µM [falling, single point] | – |
| COC(=O)Cc1ccc(NC(=O)c2ccc(C(C)(C)C)cc2)cc1 | 10 µM [rising, partial curve] | – |
| CCN(c1cccc(C(F)(F)F)c1)S(=O)(=O)c1ccc2c(c1)CCN2C(C)=O | 35.5 µM [rising, single point] | – |

Given with bars between the fields: entries from further up.
Structure (SMILES) | AC50 [1] | AC50 [2]
CCC(C)n1c(SCc2ccc([N+](=O)[O-])cc2)nc2ccsc2c1=O (stereo not given) | 35.5 µM [rising, single point] | 17.8 µM [rising, single point]
Cc1ccc(-c2cc(C(=O)Nc3cc(C)on3)c3ccccc3n2)c(C)c1 | 31.6 µM [rising, single point] | –
